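Enzyme assay of the thioesterase domain of polyketide synthase 13; the read-out is not stated. Target: Polyketide synthase Pks13, Mycobacterium tuberculosis (UniProt I6X8D2). Concentration: 30 µM. The record gives no direction; the compounds picked for IC50 retests had high values, so higher reads as stronger inhibition. About 67,000 compounds were tested under these conditions; 0.46% (about 300) showed 50% or more at least once.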

Amino acid sequences for entries named in this document (tags omitted).
UniProt I6X8D2, whole entry: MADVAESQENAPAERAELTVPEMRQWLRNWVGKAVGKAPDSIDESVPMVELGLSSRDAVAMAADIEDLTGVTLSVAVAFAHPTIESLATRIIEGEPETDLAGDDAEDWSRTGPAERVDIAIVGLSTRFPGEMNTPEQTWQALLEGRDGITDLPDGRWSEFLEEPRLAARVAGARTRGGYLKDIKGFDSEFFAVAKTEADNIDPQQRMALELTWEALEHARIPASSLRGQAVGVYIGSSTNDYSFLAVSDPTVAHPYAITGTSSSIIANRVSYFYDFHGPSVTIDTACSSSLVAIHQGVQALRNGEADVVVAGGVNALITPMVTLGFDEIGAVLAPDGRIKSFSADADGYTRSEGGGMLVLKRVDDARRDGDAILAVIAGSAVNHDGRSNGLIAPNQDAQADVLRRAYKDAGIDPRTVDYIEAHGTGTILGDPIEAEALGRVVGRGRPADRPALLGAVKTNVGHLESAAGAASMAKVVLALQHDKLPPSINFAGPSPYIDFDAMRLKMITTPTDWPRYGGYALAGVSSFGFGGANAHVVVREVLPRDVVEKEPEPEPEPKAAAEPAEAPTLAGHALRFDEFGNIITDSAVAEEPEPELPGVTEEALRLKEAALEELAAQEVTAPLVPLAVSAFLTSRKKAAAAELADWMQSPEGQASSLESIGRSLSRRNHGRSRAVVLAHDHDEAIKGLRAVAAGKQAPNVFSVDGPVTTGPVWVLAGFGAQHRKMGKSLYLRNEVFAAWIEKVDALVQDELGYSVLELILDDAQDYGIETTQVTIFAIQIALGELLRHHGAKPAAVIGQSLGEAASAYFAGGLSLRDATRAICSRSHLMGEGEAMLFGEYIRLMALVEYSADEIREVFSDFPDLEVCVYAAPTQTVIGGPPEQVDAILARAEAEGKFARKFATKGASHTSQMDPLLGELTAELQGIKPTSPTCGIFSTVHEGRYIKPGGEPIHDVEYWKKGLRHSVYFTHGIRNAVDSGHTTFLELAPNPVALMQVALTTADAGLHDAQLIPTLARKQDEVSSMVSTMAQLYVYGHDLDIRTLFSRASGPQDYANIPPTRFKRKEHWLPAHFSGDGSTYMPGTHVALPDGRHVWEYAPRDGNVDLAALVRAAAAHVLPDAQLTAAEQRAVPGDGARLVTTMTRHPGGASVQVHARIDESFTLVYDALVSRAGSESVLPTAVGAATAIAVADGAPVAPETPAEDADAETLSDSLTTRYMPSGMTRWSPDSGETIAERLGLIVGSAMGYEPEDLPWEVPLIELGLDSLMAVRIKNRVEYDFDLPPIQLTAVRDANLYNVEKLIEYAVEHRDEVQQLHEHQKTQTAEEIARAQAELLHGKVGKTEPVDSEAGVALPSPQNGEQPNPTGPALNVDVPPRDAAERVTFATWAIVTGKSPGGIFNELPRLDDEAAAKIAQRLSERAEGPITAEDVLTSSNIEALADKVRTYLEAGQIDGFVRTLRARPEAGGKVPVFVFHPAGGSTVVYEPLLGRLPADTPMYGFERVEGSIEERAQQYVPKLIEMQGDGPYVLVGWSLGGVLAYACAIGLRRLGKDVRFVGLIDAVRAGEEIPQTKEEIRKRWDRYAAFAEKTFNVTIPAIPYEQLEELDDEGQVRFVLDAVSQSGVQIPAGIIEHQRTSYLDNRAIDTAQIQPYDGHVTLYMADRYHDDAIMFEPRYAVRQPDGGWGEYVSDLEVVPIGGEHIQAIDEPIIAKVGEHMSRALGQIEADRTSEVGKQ

Results are given as percent effect.
How 0% and 100% were set is not recorded. Most values in the screen are low, and negative values occur.
The compounds are a random part of those screened.

| # | compound | percent effect |
|---|---|---|
| 1 | `C/C=C(\C)CN1CCC2(CCC(=O)N2OCc2ccccc2F)CC1` | -12.58 |
| 2 | `Cc1noc([C@@H]2CCCN2C(=O)C2CCN(C(=O)C3CCC3)CC2)n1` | -10.77 |
| 3 | `O=C(c1cn(Cc2ccccc2)c2ncccc12)N1CCOCC1` | 20.9 |
| 4 | `Cc1nc2[nH]cnc(NCCN3CCCC3)c-2n1` | 3.708 |
| 5 | `COC(=O)c1cccc(C(=O)N(C)Cc2cccc(O)c2)c1` | 8.529 |
| 6 | `CNC(=O)COc1c(F)cc(Br)cc1C(C)=O` | -9.073 |
| 7 | `CC(C)n1c(=O)nc2n1C(=O)N(c1ccccc1)C2` | -18.95 |
| 8 | `CC1CN(c2ccc(CNC(=O)NCCO)cn2)CCO1` (centres unmarked) | -25.65 |
| 9 | `COc1nccnc1N1CCN(Cc2cccc(C)c2)C(=O)C1` | -0.5907 |
| 10 | `CNC(=O)[C@@H]1[C@@H](c2ccccc2)CN2CCN(Cc3ccco3)C[C@H]12` | -23.7 |
| 11 | `CCN1CCn2cc(CNC(=O)c3cnn(C)c3)nc2C1` | -1.407 |
| 12 | `Cc1nc(CN(C)C2CCN(CC(=O)NC3CCOCC3)C2)no1` (centres unmarked) | -14.85 |
| 13 | `Cc1ccc(CNCC2CCCn3ccnc32)s1` (centres unmarked) | -30.14 |
| 14 | `Cn1cc(-c2nnn3c2COC(CNCc2cccnc2)C3)cn1` (centres unmarked) | -8.276 |
| 15 | `CS(=O)(=O)N1CCOCC2(CN(Cc3ccccn3)CCO2)C1` (centres unmarked) | -7.12 |
| 16 | `Nc1cc(C(=O)N2CCC(Oc3cccc(C(F)(F)F)c3)CC2)ccn1` | 28.54 |
| 17 | `Cc1ncsc1C(=O)N1CCCC1c1c(C)nn(C)c1C` (centres unmarked) | -30.43 |
| 18 | `CC(=O)c1ccc(NC(=O)c2ccc3c(c2)C2(CCCCC2)CN3)cc1` | 5.989 |
| 19 | `COc1c(C2CCCN2Cc2nc(C3CC3)no2)c(C)nn1C` (centres unmarked) | -16.57 |
| 20 | `Cc1nc(-c2ccccc2)ccc1C(=O)N1CCN(CCO)CC1` | -30.3 |
| 21 | `CCN(Cc1noc(CC(C)C)n1)C[C@]1(O)CCCN2CCCC[C@@H]21` | 11.82 |
| 22 | `Cc1sc2c(C3CCCNC3)nc(Nc3cccc(F)c3)n2c1C` (centres unmarked) | 12.74 |
| 23 | `Cc1csc(CN(C)C(=O)C2CCC(=O)N(CCN(C)C)C2)n1` (centres unmarked) | -11.05 |
| 24 | `CC1=N[C@@]2(CC[C@@H]3CN(C(=O)NCC(C)C)C[C@@H]32)C(=O)N1C` | 2.27 |
| 25 | `CC(C)(C)C(O)CN1CCN(C(=O)c2cccc3[nH]ncc23)CC1` (centres unmarked) | -7.526 |
| 26 | `Cc1cnn(C2CCCN(C(=O)c3c(C)oc(C)c3C)C2)c1` (centres unmarked) | -22.49 |
| 27 | `CN1CCOC(CNC(=O)Cc2coc(-c3ccccc3)n2)C1` (centres unmarked) | -7.504 |
| 28 | `Cc1ccc(CN(C)c2nccc(-c3cn(C)nc3C)n2)o1` | -13.09 |
| 29 | `CCOCCC(=O)N1CCCN(Cc2csc(CC)n2)CC1` | -11.29 |
| 30 | `Cc1ccc(C(=O)N2CCC3(CC2)C(=O)NCCN3C)cc1O` | -5.375 |
| 31 | `c1nc2c(c(NC3COC4(CCCC4)C3)n1)CCNCC2` (centres unmarked) | 1.888 |
| 32 | `Cc1nn2c(NCC(=O)NC3CC3)cc(-c3ccccc3)nc2c1C` | -26.98 |
| 33 | `CCN(CC)CCNC(=O)CCc1c(C)nn(-c2ccc(Cl)cc2)c1C` | 14.09 |
| 34 | `Cc1nc(-c2nnc[nH]2)sc1C(=O)N1CCCC(C(F)(F)F)C1` (centres unmarked) | -2.705 |
| 35 | `CN(C(=O)CNc1ccc(C#N)cc1)C1CCCCC1` | -14.62 |
| 36 | `CNS(=O)(=O)CCCN1CCN(C(C)c2cccnc2)CC1` (centres unmarked) | -2.411 |
| 37 | `Clc1ccc(C(CNCc2cccnc2)n2cccn2)cc1` (centres unmarked) | -22.1 |
| 38 | `Cn1cc(CN2CCCCC2c2ccc(-c3cccc(Cl)c3)nc2)cn1` (centres unmarked) | 13.85 |
| 39 | `CCCS(=O)(=O)N1CCOC2(CCCN(Cc3ccccn3)C2)C1` (centres unmarked) | 3.509 |
| 40 | `CN(C)CC1CN(CC(=O)N2CCc3ccccc32)CCO1` (centres unmarked) | 2.57 |
| 41 | `Cc1ccccc1-n1c(C)cc(C(=O)N2CCn3c(C)nnc3C2)c1C` | -10.06 |
| 42 | `Cc1noc(CNc2ccc(OC(F)F)cc2OC(F)F)n1` | -42.23 |
| 43 | `O=C1C(NS(=O)(=O)c2ccc(F)cc2)CCN1Cc1ccccc1` (centres unmarked) | 12.68 |
| 44 | `O=C(C(CNCc1cccs1)c1ccccc1)N1CCOCC1` (centres unmarked) | -7.533 |
| 45 | `Cc1ccc(CC(=O)NC2CCN(c3cccc(Cl)c3)C2)cn1` (centres unmarked) | -9.212 |
| 46 | `CCn1ncc2c1C(COCC1CC1)CN(c1ccc(C)nn1)C2` (centres unmarked) | 14.45 |
| 47 | `CC(C)n1nc2c(cc1=O)CN(c1ncnc3ccccc13)CC2` | 3.914 |
| 48 | `Cc1nc(CN2C[C@@H]3CCCO[C@@H]3[C@H](NC(=O)CC3CC3)C2)cs1` | -13.14 |
| 49 | `O=C(CSC1=NS(=O)(=O)c2cc(F)ccc2N1)Nc1ccc(Cl)cc1` | -11.54 |
| 50 | `Cc1cc(NC(=O)NCC(O)c2ccc(Cl)cc2Cl)n(C)n1` (centres unmarked) | -6.159 |
| 51 | `CC(=O)N1CCOC(c2nc(N(C)C)ncc2-c2cccc(F)c2)C1` (centres unmarked) | -11.36 |
| 52 | `Cc1oc(-c2ccco2)nc1CC(=O)N1CCN(CC(C)(C)O)CC1` | -7.59 |
| 53 | `O=C(NC1CCCCNC1=O)c1cc2ccccc2[nH]c1=O` (centres unmarked) | 6.36 |
| 54 | `Cc1noc(C(C)C)c1C(=O)NCc1cc(F)cc(F)c1` | -6.576 |
| 55 | `O=C(CCSc1ccccc1F)NCc1cccnc1` | 6.392 |
| 56 | `O=C1CC[C@]2(CC[C@@H](NC3CCOCC3)CC2)N1Cc1ccccc1` | -12.8 |
| 57 | `Cc1cnc(N2CCC3(CC2)CC3C(=O)NCC2CC2)nc1` (centres unmarked) | 8.379 |
| 58 | `CCCN1CCN(C(=O)c2cnc(C)nc2)[C@H]2CS(=O)(=O)C[C@H]21` | -12.65 |
| 59 | `FC(F)(F)Cn1ccnc1CN1CCOC(Cn2cccn2)C1` (centres unmarked) | -3.917 |
| 60 | `CC(C)(C)CNS(=O)(=O)C1CS(=O)(=O)c2ccccc21` (centres unmarked) | -11.05 |
| 61 | `CC(C)n1c(=O)c2sccc2n(CC(=O)Nc2cccc(Cl)c2)c1=O` | -36.7 |
| 62 | `O=S(=O)(N[C@H]1CC[C@H]1NC1Cc2ccccc2C1)c1cccnc1` | -15.21 |
| 63 | `Cc1ccnc(C2CN(c3ncccn3)C2)n1` | 0.9795 |
| 64 | `COC(=O)CCCn1ccnc1-c1ccc(OC)c(F)c1F` | -6.377 |
| 65 | `CN(Cc1nnc(C2CC2)n1C)S(=O)(=O)c1ccccc1F` | -4.434 |
| 66 | `COCCC(=O)N1CCC(c2ccc3c(NC(C)C)n[nH]c3n2)C1` (centres unmarked) | -2.483 |
| 67 | `CCN1CCC(NC(=O)CN2CCCCC2Cn2cncn2)CC1` (centres unmarked) | -16.06 |
| 68 | `Cc1occc1C(=O)N1CCCS1(=O)=O` | -1.247 |
| 69 | `COc1cc(CNCCc2cnn(C)c2)cc2c1OCCO2` | -8.211 |
| 70 | `Cc1ccccc1C(=O)N1CCC(n2nnc3cc(F)ccc32)CC1` | -7.524 |
| 71 | `Cc1cc(N2CC[C@H](O)C2)n2nc(C)c(C)c2n1` | 6.301 |
| 72 | `CCc1nc(N2CCC3(CC2)CC(=O)N(Cc2ccc(Cl)cc2)C3)no1` | -209.8 |
| 73 | `Cc1csc(N2CCCN(C(=O)c3csc(C)n3)CC2)n1` | -3.238 |

Repeated from the top, 4 entries:

{"compound": "C/C=C(\\C)CN1CCC2(CCC(=O)N2OCc2ccccc2F)CC1", "percent effect": -12.58}
{"compound": "Cc1noc([C@@H]2CCCN2C(=O)C2CCN(C(=O)C3CCC3)CC2)n1", "percent effect": -10.77}
{"compound": "O=C(c1cn(Cc2ccccc2)c2ncccc12)N1CCOCC1", "percent effect": 20.9}
{"compound": "Cc1nc2[nH]cnc(NCCN3CCCC3)c-2n1", "percent effect": 3.708}

The values are deposited in ChEMBL (CHEMBL3988442, “University of Dundee, Small-Polar-MMV Screening Library” (2021)).